The text below walks through data of patent US20250270200A1, “CTPS1 INHIBITORS AND USES THEREOF” (Nimbus Clotho, Inc., priority 2022, published 2025).

“And” between values parts separate entries of the source, which are not always exact repeats. Equal entries are not always repeated. Structures were worked out from names or drawings and are uncertain.

What is called IC50 is the midpoint of a concentration-inhibition curve.

This assay concerns the target human CTPS1 (Homo sapiens, UniProt P17812). The assay can be described thus: ADP-Glo assay, human CTPS1 enzyme inhibition. It is filed as biochemical. The following applies: read-out: ADP-Glo_WT_hCTPS1—25 nM_IC50 (IC50), wild-type human CTPS1, 25 nM enzyme. On the procedure:
The enzyme inhibitory activities of the compounds of the invention against the target of interest were determined using the ADP-Glo™ assay (Promega). Assays for human CTPS1 and CTPS2 were performed in 1× assay buffer containing 50 mM HEPES (Life Technologies), 10 mM Mg2+, 5 mM KCl, 2 mM DTT, 0.01% F-127, pH to 7.4 accordingly. All reagents are from Sigma-Aldrich, unless specified otherwise. Purified human full length active N-terminal FLAG-8×HIS-TEV tagged CTPS1 (UniprotKB—P17812, […]-CTPS1[1-591]) was generated using a mammalian expression system at Viva Biotech (Shanghai) Ltd.
Purified human CTPS1 protein was prepared in 1× assay buffer to the final working protein concentration required for the reaction. A 2.5 μL volume per well of human CTPS 1 protein was mixed with 0.1 μL per well of test compound dissolved in DMSO and pre-incubated at 25 degrees C. for 10 minutes. 2.5 μL per well of the reaction precursors ATP (UltraPure ATP from ADP-Glo™ kit) and UTP were then added and pre-incubated for an additional 10 minutes at 25 degrees C. Finally, the reaction was initiated by the addition of 5 μL of the reaction precursors L-glutamine and GTP. The final concentration of all reaction components in the assay: ATP (120 μM), UTP (160 μM), GTP (60 μM), L-Glutamine (100 μM), DMSO (1%), hCTPS1 (25 nM). This mixture was incubated for an appropriate amount of time within the determined linear phase of the reaction at 25 degrees C. under sealed plate conditions with constant agitation at 500 revolutions per minute (rpm). ADP-Glo™ reagent was added for 60 minutes (10 μL per well) and subsequently ADP-Glo™ development reagent was added for 60 minutes (20 μL per well) prior to signal detection in a microplate reader (Envision Multilabel Reader, Perkin Elmer). Following each reagent addition over the course of the assay, assay plates were pulse centrifuged for 1 minute at 1000 rpm.
The enzyme converts ATP to ADP and the ADP-Glo™ reagent subsequently depletes any remaining ATP in the reaction system. The ADP-Glo™ detection reagents converts the ADP that has been produced by the enzyme back into ATP, which is then utilized as a substrate together with luciferin for the enzyme luciferase. Light generated by this chemiluminescent reaction is quantified and is directly proportional to the amount of ADP produced by the CTPS1 enzyme reaction. […]
On the technique in general: ADP-Glo turns the ADP formed in a reaction into a luminescent signal.
For `CCOc1cncc(-c2cc(F)c(C(=O)NCc3cc(NS(=O)(=O)C4CC4)ccn3)cc2F)n1`, the IC50 was 5 to 25 nM.

As to `CCOc1cncc(-c2cnc(C(=O)N[C@@H](Cn3ccnn3)c3cc(NS(=O)(=O)C4CC4)ccn3)s2)n1` (single isomer, unassigned), the IC50 lay within 25 to 50 nM. `CCOc1cncc(-c2cnc(NC(=O)Cc3cc(NS(=O)(=O)C4CC4)ccn3)s2)n1`: the IC50 is > 100 nM and 50 to 100 nM. On to `C[C@H](CN1CCCCC1)[C@@H](NC(=O)c1ncc(-c2cnn3ccc(Cl)cc23)s1)c1cc(NS(=O)(=O)C2CC2)ccn1`, for which the IC50 lay within 5 to 25 nM.
